Results are given in words; binding and its absence hold for the method and conditions named. Binding seen in cells or lysates may run through a third protein. Some entries that bind do so weakly or less than the wild type.
Molecular target: human C5aR2-Venus (human) (UniProt Q9P296)
Experiment: FRET or BRET; HEK293 cells transiently transfected with β-arrestin 2-Rluc8 and human C5aR2-Venus; substrate EnduRen 30 μM; 37°C; ligand-induced BRET ratio (Venus/Rluc8, vehicle subtracted) after SB290157, P32 or C5a

Amino acid sequences for entries named in this document (tags omitted).
UniProt Q9P296: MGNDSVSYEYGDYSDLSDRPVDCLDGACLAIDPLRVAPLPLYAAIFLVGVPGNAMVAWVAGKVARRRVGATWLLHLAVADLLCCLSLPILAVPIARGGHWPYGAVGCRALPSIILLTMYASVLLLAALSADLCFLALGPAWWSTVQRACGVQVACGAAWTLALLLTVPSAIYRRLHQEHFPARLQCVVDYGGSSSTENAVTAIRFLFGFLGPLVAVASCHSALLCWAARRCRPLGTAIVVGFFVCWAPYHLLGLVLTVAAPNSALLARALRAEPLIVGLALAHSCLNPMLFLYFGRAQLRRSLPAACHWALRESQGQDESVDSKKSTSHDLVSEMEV
UniProt P32121: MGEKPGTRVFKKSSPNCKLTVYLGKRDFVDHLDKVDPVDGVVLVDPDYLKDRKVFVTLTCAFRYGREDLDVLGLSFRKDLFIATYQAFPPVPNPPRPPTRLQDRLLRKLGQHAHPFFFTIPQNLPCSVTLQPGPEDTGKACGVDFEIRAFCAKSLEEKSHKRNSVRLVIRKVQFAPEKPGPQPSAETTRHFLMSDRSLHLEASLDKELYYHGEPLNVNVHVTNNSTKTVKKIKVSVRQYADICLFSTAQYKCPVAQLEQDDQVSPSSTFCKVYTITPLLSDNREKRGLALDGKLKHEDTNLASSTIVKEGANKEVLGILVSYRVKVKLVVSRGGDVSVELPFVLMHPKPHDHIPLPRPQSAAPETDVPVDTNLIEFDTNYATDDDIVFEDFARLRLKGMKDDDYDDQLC

binding: binds
Substance: β-arrestin 2-Renilla luciferase 8 (Rluc8) (from UniProt P32121 1-409)

From PMC7859635, “The “C3aR Antagonist” SB290157 is a Partial C5aR2 Agonist” (Frontiers in Pharmacology, 2021)
